# Measurements reported in the supplement of paper PMC12819154, “High-throughput peptide-centric local stability assay extends protein–ligand identification to membrane proteins, tissues and bacteria” (Nature Structural & Molecular Biology, 2025).
# Chains of the proteins cited; added tags and fusions are not shown. Lines headed by an entry give the natural chain unless they say otherwise; changes in a name come on top.
# UniProt P33355: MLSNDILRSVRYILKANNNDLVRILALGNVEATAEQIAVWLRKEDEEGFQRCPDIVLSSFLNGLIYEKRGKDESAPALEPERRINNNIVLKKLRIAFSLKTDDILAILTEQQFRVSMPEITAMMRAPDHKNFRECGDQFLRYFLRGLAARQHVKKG
# UniProt P31979: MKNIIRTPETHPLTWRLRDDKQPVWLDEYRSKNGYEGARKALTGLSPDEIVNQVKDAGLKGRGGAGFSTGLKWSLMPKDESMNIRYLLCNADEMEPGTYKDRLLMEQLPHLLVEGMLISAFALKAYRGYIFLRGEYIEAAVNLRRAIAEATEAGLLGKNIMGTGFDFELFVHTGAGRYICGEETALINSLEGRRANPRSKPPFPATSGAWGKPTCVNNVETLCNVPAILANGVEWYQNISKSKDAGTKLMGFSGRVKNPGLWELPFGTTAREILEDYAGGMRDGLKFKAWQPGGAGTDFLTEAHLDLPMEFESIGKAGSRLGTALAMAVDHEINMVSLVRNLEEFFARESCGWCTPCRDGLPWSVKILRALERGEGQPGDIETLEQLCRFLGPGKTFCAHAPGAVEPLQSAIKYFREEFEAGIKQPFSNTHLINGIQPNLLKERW
# UniProt P25798: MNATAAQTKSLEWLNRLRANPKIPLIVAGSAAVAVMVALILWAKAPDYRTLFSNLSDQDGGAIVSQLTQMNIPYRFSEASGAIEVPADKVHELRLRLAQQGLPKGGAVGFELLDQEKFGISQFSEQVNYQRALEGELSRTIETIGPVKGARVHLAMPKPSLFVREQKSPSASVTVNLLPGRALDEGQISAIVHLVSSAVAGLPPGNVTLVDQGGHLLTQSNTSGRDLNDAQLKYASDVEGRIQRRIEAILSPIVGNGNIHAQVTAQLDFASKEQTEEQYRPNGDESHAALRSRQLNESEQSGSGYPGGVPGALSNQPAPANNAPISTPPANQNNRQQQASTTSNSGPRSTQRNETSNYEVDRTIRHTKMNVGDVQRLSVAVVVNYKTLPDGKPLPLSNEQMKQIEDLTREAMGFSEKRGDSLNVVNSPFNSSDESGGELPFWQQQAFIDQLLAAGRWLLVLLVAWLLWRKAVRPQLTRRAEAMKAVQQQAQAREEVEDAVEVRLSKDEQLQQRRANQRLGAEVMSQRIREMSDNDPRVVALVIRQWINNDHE
# UniProt P25526: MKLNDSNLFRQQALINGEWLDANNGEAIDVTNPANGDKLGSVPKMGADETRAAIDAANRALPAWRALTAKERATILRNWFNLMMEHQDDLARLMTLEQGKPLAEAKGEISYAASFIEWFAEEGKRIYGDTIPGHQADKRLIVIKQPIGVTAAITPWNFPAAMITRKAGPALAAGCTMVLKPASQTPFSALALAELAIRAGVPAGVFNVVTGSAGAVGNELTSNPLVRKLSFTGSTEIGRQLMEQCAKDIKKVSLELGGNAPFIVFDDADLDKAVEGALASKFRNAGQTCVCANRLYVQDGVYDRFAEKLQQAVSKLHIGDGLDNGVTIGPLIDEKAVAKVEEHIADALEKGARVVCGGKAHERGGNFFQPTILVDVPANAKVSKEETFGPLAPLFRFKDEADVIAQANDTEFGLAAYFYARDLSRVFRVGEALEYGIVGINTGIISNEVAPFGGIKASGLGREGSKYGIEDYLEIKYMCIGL
# UniProt P27302: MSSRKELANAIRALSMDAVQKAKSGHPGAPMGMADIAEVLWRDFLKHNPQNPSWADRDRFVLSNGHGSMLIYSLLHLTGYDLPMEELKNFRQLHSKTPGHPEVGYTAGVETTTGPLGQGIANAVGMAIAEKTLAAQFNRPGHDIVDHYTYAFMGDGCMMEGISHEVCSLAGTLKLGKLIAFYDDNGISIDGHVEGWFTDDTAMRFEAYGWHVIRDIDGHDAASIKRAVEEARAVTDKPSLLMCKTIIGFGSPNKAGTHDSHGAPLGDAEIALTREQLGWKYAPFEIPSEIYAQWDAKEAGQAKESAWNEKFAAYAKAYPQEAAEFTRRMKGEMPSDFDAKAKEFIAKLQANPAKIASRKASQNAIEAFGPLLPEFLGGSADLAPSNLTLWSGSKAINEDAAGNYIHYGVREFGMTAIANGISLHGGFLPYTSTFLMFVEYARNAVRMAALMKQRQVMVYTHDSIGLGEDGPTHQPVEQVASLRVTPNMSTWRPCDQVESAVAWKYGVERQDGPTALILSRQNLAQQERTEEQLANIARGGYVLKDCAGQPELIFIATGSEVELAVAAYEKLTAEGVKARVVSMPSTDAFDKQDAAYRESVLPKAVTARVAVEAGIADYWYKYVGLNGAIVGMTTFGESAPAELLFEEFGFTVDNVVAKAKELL
# UniProt P27862: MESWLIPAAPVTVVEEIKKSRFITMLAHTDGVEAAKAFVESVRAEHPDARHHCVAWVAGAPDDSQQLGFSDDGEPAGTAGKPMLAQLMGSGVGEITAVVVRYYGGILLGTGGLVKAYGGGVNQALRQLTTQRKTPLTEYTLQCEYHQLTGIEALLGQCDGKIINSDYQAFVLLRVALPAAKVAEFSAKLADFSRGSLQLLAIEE
# UniProt P27896: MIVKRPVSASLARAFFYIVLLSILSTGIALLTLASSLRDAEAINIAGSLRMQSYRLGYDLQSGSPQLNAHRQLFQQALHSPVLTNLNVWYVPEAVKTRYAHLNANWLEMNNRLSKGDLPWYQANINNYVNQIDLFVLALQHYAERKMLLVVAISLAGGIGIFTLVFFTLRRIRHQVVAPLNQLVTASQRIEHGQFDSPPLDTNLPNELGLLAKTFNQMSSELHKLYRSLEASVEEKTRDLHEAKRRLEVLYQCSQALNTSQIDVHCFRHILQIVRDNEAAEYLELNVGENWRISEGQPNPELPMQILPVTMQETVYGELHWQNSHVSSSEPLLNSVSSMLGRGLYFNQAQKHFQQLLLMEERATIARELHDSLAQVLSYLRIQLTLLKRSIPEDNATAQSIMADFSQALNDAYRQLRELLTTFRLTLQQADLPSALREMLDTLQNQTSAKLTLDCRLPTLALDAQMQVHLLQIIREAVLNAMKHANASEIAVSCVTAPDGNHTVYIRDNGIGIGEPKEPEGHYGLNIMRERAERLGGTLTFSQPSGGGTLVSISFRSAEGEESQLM
# UniProt P28915: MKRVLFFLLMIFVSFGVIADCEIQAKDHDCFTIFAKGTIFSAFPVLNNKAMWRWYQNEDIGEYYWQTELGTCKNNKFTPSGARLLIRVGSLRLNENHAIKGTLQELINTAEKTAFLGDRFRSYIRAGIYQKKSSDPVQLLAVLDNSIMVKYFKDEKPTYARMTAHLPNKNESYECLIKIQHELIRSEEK
# UniProt P33570: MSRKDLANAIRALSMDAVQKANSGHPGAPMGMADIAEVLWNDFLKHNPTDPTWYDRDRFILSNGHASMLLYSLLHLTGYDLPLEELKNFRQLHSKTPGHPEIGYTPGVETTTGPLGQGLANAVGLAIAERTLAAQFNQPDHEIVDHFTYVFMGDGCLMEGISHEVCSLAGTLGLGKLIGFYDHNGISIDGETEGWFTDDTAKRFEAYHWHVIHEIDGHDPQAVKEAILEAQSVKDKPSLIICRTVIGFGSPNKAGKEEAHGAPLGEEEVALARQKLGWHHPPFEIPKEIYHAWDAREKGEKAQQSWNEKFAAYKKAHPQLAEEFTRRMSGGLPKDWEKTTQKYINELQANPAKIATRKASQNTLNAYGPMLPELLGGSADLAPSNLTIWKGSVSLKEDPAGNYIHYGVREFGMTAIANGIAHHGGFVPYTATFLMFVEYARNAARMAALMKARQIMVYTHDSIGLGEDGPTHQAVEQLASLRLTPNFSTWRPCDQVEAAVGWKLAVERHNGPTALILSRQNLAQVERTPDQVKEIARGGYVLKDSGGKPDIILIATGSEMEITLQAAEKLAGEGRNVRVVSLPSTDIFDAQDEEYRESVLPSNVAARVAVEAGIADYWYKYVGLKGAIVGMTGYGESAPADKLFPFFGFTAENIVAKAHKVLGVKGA
# UniProt P31467: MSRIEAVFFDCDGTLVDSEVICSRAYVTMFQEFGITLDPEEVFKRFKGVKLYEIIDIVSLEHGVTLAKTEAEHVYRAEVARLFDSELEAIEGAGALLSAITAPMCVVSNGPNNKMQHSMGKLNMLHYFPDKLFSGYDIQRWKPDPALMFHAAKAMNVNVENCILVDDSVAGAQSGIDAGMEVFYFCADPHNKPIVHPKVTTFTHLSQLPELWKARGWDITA
# UniProt P33363: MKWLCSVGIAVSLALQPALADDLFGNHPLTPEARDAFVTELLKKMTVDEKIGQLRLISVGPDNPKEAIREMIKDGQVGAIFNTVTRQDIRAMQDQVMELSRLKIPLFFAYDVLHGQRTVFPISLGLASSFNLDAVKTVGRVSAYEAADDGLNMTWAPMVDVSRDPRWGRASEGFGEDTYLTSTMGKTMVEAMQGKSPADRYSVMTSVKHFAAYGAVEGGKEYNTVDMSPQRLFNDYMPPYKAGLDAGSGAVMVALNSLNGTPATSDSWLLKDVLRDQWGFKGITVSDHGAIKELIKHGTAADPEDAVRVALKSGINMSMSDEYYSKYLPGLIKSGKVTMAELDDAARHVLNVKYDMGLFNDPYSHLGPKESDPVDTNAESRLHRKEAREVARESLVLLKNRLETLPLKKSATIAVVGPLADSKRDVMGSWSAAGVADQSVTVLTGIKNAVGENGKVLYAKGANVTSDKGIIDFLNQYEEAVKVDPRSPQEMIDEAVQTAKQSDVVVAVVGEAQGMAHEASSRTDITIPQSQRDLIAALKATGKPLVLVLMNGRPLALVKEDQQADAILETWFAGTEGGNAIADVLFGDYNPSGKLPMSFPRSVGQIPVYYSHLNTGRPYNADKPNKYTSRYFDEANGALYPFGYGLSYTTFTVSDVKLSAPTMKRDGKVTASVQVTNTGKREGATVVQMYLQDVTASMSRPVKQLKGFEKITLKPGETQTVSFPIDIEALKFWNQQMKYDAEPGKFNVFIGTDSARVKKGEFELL
# This is one part of the list. Most values lie at the level of the controls, where differences are scatter.
# Compound: CC1(C)S[C@@H]2[C@H](NC(=O)[C@H](N)c3ccccc3)C(=O)N2[C@H]1C(=O)O [ampicillin]
# Assay: log2 fold change of tryptic peptide abundance, ligand vs vehicle (limited proteolysis) (log2 ratio); higher = more trypsin-susceptible (destabilized)
# Settings: ligand concentration: 10 uM; sample: E. coli crude lysate
row,Target,log2 fold change
1,"UniProt P33355 (peptide sequence: GKDESAPALEPERR, peptide start residue: 70)",0.221
2,"UniProt P31979 (peptide sequence: EILEDYAGGMRDGLK, peptide start residue: 272)",-0.373
3,"UniProt P25798 (peptide sequence: MNVGDVQR, peptide start residue: 369)",-0.17
4,"UniProt P25526 (peptide sequence: LMTLEQGKPLAEAK, peptide start residue: 93)",-0.144
5,"UniProt P27302 (peptide sequence: RMKGEMPSDFDAK, peptide start residue: 328)",-1.14
6,"UniProt P27862 (peptide sequence: FITMLAHTDGVEAAK, peptide start residue: 22)",-0.0383
7,"UniProt P27896 (peptide sequence: DNGIGIGEPK, peptide start residue: 508)",-0.348
8,"UniProt P28915 (peptide sequence: LNENHAIK, peptide start residue: 93)",-0.43
9,"UniProt P33570 (peptide sequence: QNLAQVER, peptide start residue: 520)",-0.659
10,"UniProt P31467 (peptide sequence: TEAEHVYR, peptide start residue: 69)",-0.554
11,"UniProt P33363 (peptide sequence: LISVGPDNPKEAIR, peptide start residue: 56)",-0.767
